Results deposited as PubChem BioAssay AID1259405 (NCATS, 2018)

Purpose: 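Mouse-designed siRNAs used to find CHO productivity engineering targets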 (primary screen)
System: Chinese hamster CHO-K1 ovary cells with stable secreted eGFP expression
Knock-down reagent: single siRNA against mouse genes, 0.8 pmol siRNA per well (2 µl of 400 nM stock)
Duration: 3 days
Measured: 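Per-well intracellular GFP measured by laser scanning cytometry, plus viability from ATP luminescence, each relative to plate median of non-targeting control wells, in %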
Scale: GFP, % of control: higher = more GFP per well, higher productivity; viability (ATP), % of control: higher = more viable cells (more ATP)
Rule for the call: 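a knock-down is called active if GFP reaches 120% or more of non-targeting control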
The deposit covers about 50,000 reagents; shown is a part drawn at random. Over the whole deposit, about 4,000 (8%) are marked active. 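Mouse siRNA library applied to hamster cells; one well for each siRNA.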 Unmarked entries are inactive. The numbers tell different reagents against one gene apart.

Gene | siRNA no. | GFP, % of control | viability (ATP), % of control
Hoxb4 | 1 | 76.6 | 85.5
Hoxb4 | 2 | 85.2 | 71.3
Hoxb4 | 3 | 163 (active) | 93.4
Noc2l | 1 | 77.2 | 47.9
Noc2l | 2 | 80.8 | 64.4
Noc2l | 3 | 71.2 | 89.4
Ifitm6 | 1 | 77.1 | 69.3
Ifitm6 | 2 | 80.2 | 82.1
Ifitm6 | 3 | 83.1 | 81.6
Mug2 | 1 | 88 | 98.1
Mug2 | 2 | 89.1 | 67.2
Mug2 | 3 | 78.2 | 95.4
Selenof | 1 | 50.8 | 65.5
Selenof | 2 | 41.6 | 49.4
Selenof | 3 | 61.9 | 75.6
H1f6 | 1 | 50.8 | 44.2
H1f6 | 2 | 97 | 113
H1f6 | 3 | 55.6 | 51.5
Rab5b | 1 | 88.1 | 88.8
Rab5b | 2 | 175 (active) | 68.5
Rab5b | 3 | 77.8 | 77
Csnk1g3 | 1 | 120 (active) | 87.4
Csnk1g3 | 2 | 135 (active) | 96.5
Csnk1g3 | 3 | 69.6 | 49
Csnk1g3 | 4 | 58.1 | 84.1
Csnk1g3 | 5 | 72.1 | 87.9
Csnk1g3 | 6 | 71.2 | 102
Lipg | 1 | 115 | 126
Lipg | 2 | 134 (active) | 125
Lipg | 3 | 73.5 | 100
Pgap2 | 1 | 72.1 | 48
Pgap2 | 2 | 76.4 | 58.4
Pgap2 | 3 | 68.5 | 65.3
Fhod1 | 1 | 87 | 83.2
Fhod1 | 2 | 68.7 | 89
Morc1 | 1 | 102 | 113
Morc1 | 2 | 86.4 | 72.1
Adrb1 | 1 | 108 | 94.2
Adrb1 | 2 | 74.2 | 80.5
Adrb1 | 3 | 88.2 | 45
Or4g16 | 1 | 88.3 | 69.3
Or4g16 | 2 | 67.3 | 66.2
Or4g16 | 3 | 56.7 | 107
Snx18 | 1 | 78.9 | 104
Snx18 | 2 | 94.5 | 74.3
Dhdh | 1 | 113 | 98.7
Dhdh | 2 | 68.5 | 72.8
Dhdh | 3 | 72.8 | 74
Ccdc34 | 1 | 75.6 | 56.8
Ccdc34 | 2 | 58.5 | 61.4
Ccdc34 | 3 | 87 | 90.9
Or5h22 | 1 | 63.9 | 46.1
Or5h22 | 2 | 96.2 | 81.6
Or5h22 | 3 | 65.3 | 92.4
Klhl11 | 1 | 87.8 | 96.4
Klhl11 | 2 | 91.8 | 84.9
Klhl11 | 3 | 108 | 84.2
H1f4 | 1 | 91.3 | 30.1
H1f4 | 2 | 89.9 | 101
H1f4 | 3 | 34.1 | 55.4
Or5d16 | 1 | 87.2 | 121
Or5d16 | 2 | 57.3 | 66
Or5d16 | 3 | 37 | 42.3
Ptprb | 1 | 120 (active) | 119
Ptprb | 2 | 70.2 | 55.9
Myod1 | 1 | 98.5 | 117
Myod1 | 2 | 93.3 | 84.2
Myod1 | 3 | 116 | 126
9130401M01Rik | 1 | 134 (active) | 103
9130401M01Rik | 2 | 73.1 | 75.5
9130401M01Rik | 3 | 95.7 | 107
Fhad1 | 1 | 53.8 | 43.3
Fhad1 | 2 | 46.8 | 46.3
Fhad1 | 3 | 77.1 | 65.3
Dennd5b | 1 | 64.8 | 80.1
Dennd5b | 2 | 67.3 | 92.9
Dennd5b | 3 | 80.4 | 99.3
Qdpr | 1 | 81.7 | 100
Qdpr | 2 | 39.4 | 63.8
Qdpr | 3 | 73 | 67
Coxfa4 | 1 | 80.4 | 91.5
Coxfa4 | 2 | 78.5 | 67.4
Coxfa4 | 3 | 140 (active) | 86.7
Treml4 | 1 | 85.8 | 84.1
Treml4 | 2 | 67.7 | 72.1
Treml4 | 3 | 41.9 | 46.8

Hits, of those listed so far:
Gene | siRNA no. | GFP, % of control | viability (ATP), % of control
Hoxb4 | 3 | 163 (active) | 93.4
Rab5b | 2 | 175 (active) | 68.5
Csnk1g3 | 1 | 120 (active) | 87.4
Csnk1g3 | 2 | 135 (active) | 96.5
Lipg | 2 | 134 (active) | 125
Ptprb | 1 | 120 (active) | 119
9130401M01Rik | 1 | 134 (active) | 103
Coxfa4 | 3 | 140 (active) | 86.7
